Laboratory results: PubChem BioAssay AID188 (DTP/NCI, 2004)
Shown are survivors of the treated group in tumour-free mice. Survivors were counted at the toxicity check, usually on the fifth day, unless a day is given; later deaths do not show. Schedule codes are those of the source, read here as Q, the interval in days (D) or hours (H), X, the number of doses. Some doses were run more than once; their values stand side by side, smallest first.

Tested on: CD2F1 mice, nontumored, toxicity/survival
Assay: NCI In Vivo Anticancer Drug Screen. Data for tumor model Nontumored Animals (Toxicity Test) in CD2F1 (CDF1) mice

**Q.** What does the source list for COc1cc2c[n+](C)c3c4cc5c(cc4ccc3c2cc1OC)OCO5?
**A.** survivor count (dose: 1.0 mg/kg/injection, schedule: Q03HX016 (ip), vehicle: saline with Tween-80): 8 of 8; survivor count (dose: 1.0 mg/kg/injection, schedule: Q03HX024 (ip), vehicle: saline with Tween-80): 8 of 8; survivor count (dose: 2.0 mg/kg/injection, schedule: Q01DX009 (ip), vehicle: water): 8 of 8; survivor count (dose: 2.0 mg/kg/injection, schedule: Q03HX008 (ip), vehicle: water): 8 of 8; survivor count (dose: 2.0 mg/kg/injection, schedule: Q03HX016 (ip), vehicle: saline with Tween-80): 8 of 8; survivor count (dose: 2.0 mg/kg/injection, schedule: Q03HX016 (ip), vehicle: water): 8 of 8; survivor count (dose: 2.0 mg/kg/injection, schedule: Q03HX024 (ip), vehicle: saline with Tween-80): 8 of 8; survivor count (dose: 2.0 mg/kg/injection, schedule: Q03HX024 (ip), vehicle: water): 8 of 8; survivor count (dose: 3.12 mg/kg/injection, schedule: Q01DX009 (ip), vehicle: water): 8 of 8; survivor count (dose: 4.0 mg/kg/injection, schedule: Q01DX009 (ip), vehicle: water): 7 of 8; survivor count (dose: 4.0 mg/kg/injection, schedule: Q01DX009 (sc), vehicle: water): 8 of 8; survivor count (dose: 4.0 mg/kg/injection, schedule: Q03HX008 (ip), vehicle: saline with Tween-80): 8 of 8; survivor count (dose: 4.0 mg/kg/injection, schedule: Q03HX008 (ip), vehicle: water): 8 of 8; survivor count (dose: 4.0 mg/kg/injection, schedule: Q03HX016 (ip), vehicle: saline with Tween-80): 8 of 8; survivor count (dose: 4.0 mg/kg/injection, schedule: Q03HX016 (ip), vehicle: water): 7 of 8; survivor count (dose: 4.0 mg/kg/injection, schedule: Q03HX024 (ip), vehicle: saline with Tween-80): 8 of 8; survivor count (dose: 4.0 mg/kg/injection, schedule: Q03HX024 (ip), vehicle: water): 7 of 8; survivor count (dose: 6.25 mg/kg/injection, schedule: Q01DX009 (ip), vehicle: water): 8 of 8; survivor count (dose: 8.0 mg/kg/injection, schedule: Q01DX009 (ip), vehicle: saline with Tween-80): 8 of 8; survivor count (dose: 8.0 mg/kg/injection, schedule: Q01DX009 (ip), vehicle: water): 8 of 8; survivor count (dose: 8.0 mg/kg/injection, schedule: Q01DX009 (oral), vehicle: water): 8 of 8; survivor count (dose: 8.0 mg/kg/injection, schedule: Q01DX009 (sc), vehicle: saline with Tween-80): 8 of 8; survivor count (dose: 8.0 mg/kg/injection, schedule: Q01DX009 (sc), vehicle: water): 8 of 8; survivor count (dose: 8.0 mg/kg/injection, schedule: Q03HX008 (ip), vehicle: saline with Tween-80): 8 of 8; survivor count (dose: 8.0 mg/kg/injection, schedule: Q03HX008 (ip), vehicle: water): 7 of 8; survivor count (dose: 8.0 mg/kg/injection, schedule: Q03HX016 (ip), vehicle: saline with Tween-80): 8 of 8; survivor count (dose: 8.0 mg/kg/injection, schedule: Q03HX016 (ip), vehicle: water): 7 of 8; survivor count (dose: 8.0 mg/kg/injection, schedule: Q03HX024 (ip), vehicle: saline with Tween-80): 8 of 8; survivor count (dose: 8.0 mg/kg/injection, schedule: Q03HX024 (ip), vehicle: water): 7 of 8; survivor count (dose: 8.0 mg/kg/injection, schedule: Q04DX003 (ip), vehicle: saline with Tween-80): 8 of 8; survivor count (dose: 8.0 mg/kg/injection, schedule: Q04DX003 (ip), vehicle: water): 8 of 8; survivor count (dose: 8.0 mg/kg/injection, schedule: Q08DX002 (ip), vehicle: saline with Tween-80): 8 of 8; survivor count (dose: 12.5 mg/kg/injection, schedule: Q01DX009 (ip), vehicle: water): 8 of 8; survivor count (dose: 16.0 mg/kg/injection, schedule: Q01DX001 (ip), vehicle: water): 8 of 8; survivor count (dose: 16.0 mg/kg/injection, schedule: Q01DX001 (oral), vehicle: water): 8 of 8; survivor count (dose: 16.0 mg/kg/injection, schedule: Q01DX001 (sc), vehicle: water): 8 of 8; survivor count (dose: 16.0 mg/kg/injection, schedule: Q01DX009 (ip), vehicle: saline with Tween-80): 8 of 8; survivor count (dose: 16.0 mg/kg/injection, schedule: Q01DX009 (ip), vehicle: water): 8 of 8; survivor count (dose: 16.0 mg/kg/injection, schedule: Q01DX009 (oral), vehicle: water): 8 of 8; survivor count (dose: 16.0 mg/kg/injection, schedule: Q01DX009 (sc), vehicle: saline with Tween-80): 8 of 8; survivor count (dose: 16.0 mg/kg/injection, schedule: Q01DX009 (sc), vehicle: water): 8 of 8; survivor count (dose: 16.0 mg/kg/injection, schedule: Q03HX008 (ip), vehicle: saline with Tween-80): 8 of 8; survivor count (dose: 16.0 mg/kg/injection, schedule: Q03HX008 (ip), vehicle: water): 1 of 8; survivor count (dose: 16.0 mg/kg/injection, schedule: Q03HX016 (ip), vehicle: saline with Tween-80): 8 of 8; survivor count (dose: 16.0 mg/kg/injection, schedule: Q03HX016 (ip), vehicle: water): 1 of 8; survivor count (dose: 16.0 mg/kg/injection, schedule: Q03HX024 (ip), vehicle: saline with Tween-80): 8 of 8; survivor count (dose: 16.0 mg/kg/injection, schedule: Q03HX024 (ip), vehicle: water): 0 of 8; survivor count (dose: 16.0 mg/kg/injection, schedule: Q04DX003 (ip), vehicle: saline with Tween-80): 8 of 8; survivor count (dose: 16.0 mg/kg/injection, schedule: Q04DX003 (ip), vehicle: water): 8 of 8; survivor count (dose: 16.0 mg/kg/injection, schedule: Q08DX002 (ip), vehicle: saline with Tween-80): 8 of 8; survivor count (dose: 16.0 mg/kg/injection, schedule: Q08DX002 (ip), vehicle: water): 8 of 8; survivor count (dose: 25.0 mg/kg/injection, schedule: Q01DX009 (ip), vehicle: water): 7 of 8 and 8 of 8; survivor count (dose: 32.0 mg/kg/injection, schedule: Q01DX001 (ip), vehicle: saline with Tween-80): 8 of 8; survivor count (dose: 32.0 mg/kg/injection, schedule: Q01DX001 (ip), vehicle: water): 8 of 8; survivor count (dose: 32.0 mg/kg/injection, schedule: Q01DX001 (oral), vehicle: water): 8 of 8; survivor count (dose: 32.0 mg/kg/injection, schedule: Q01DX001 (sc), vehicle: saline with Tween-80): 8 of 8; survivor count (dose: 32.0 mg/kg/injection, schedule: Q01DX001 (sc), vehicle: water): 2 of 8; survivor count (dose: 32.0 mg/kg/injection, schedule: Q01DX009 (ip), vehicle: saline with Tween-80): 8 of 8; survivor count (dose: 32.0 mg/kg/injection, schedule: Q01DX009 (ip), vehicle: water): 8 of 8; survivor count (dose: 32.0 mg/kg/injection, schedule: Q01DX009 (oral), vehicle: saline with Tween-80): 8 of 8; survivor count (dose: 32.0 mg/kg/injection, schedule: Q01DX009 (oral), vehicle: water): 8 of 8; survivor count (dose: 32.0 mg/kg/injection, schedule: Q01DX009 (sc), vehicle: saline with Tween-80): 8 of 8; survivor count (dose: 32.0 mg/kg/injection, schedule: Q01DX009 (sc), vehicle: water): 8 of 8; survivor count (dose: 32.0 mg/kg/injection, schedule: Q03HX008 (ip), vehicle: saline with Tween-80): 8 of 8; survivor count (dose: 32.0 mg/kg/injection, schedule: Q03HX008 (ip), vehicle: water): 0 of 8; survivor count (dose: 32.0 mg/kg/injection, schedule: Q03HX016 (ip), vehicle: saline with Tween-80): 8 of 8; survivor count (dose: 32.0 mg/kg/injection, schedule: Q04DX003 (ip), vehicle: saline with Tween-80): 8 of 8; survivor count (dose: 32.0 mg/kg/injection, schedule: Q04DX003 (ip), vehicle: water): 8 of 8; survivor count (dose: 32.0 mg/kg/injection, schedule: Q08DX002 (ip), vehicle: saline with Tween-80): 8 of 8; survivor count (dose: 32.0 mg/kg/injection, schedule: Q08DX002 (ip), vehicle: water): 8 of 8; survivor count (dose: 50.0 mg/kg/injection, schedule: Q01DX009 (ip), vehicle: water): 2 of 8 and 4 of 8; survivor count (dose: 64.0 mg/kg/injection, schedule: Q01DX001 (ip), vehicle: saline with Tween-80): 8 of 8; survivor count (dose: 64.0 mg/kg/injection, schedule: Q01DX001 (ip), vehicle: water): 8 of 8; survivor count (dose: 64.0 mg/kg/injection, schedule: Q01DX001 (oral), vehicle: water): 8 of 8; survivor count (dose: 64.0 mg/kg/injection, schedule: Q01DX001 (sc), vehicle: saline with Tween-80): 8 of 8; survivor count (dose: 64.0 mg/kg/injection, schedule: Q01DX001 (sc), vehicle: water): 8 of 8; survivor count (dose: 64.0 mg/kg/injection, schedule: Q01DX009 (ip), vehicle: saline with Tween-80): 8 of 8; survivor count (dose: 64.0 mg/kg/injection, schedule: Q01DX009 (ip), vehicle: water): 0 of 8; survivor count (dose: 64.0 mg/kg/injection, schedule: Q01DX009 (oral), vehicle: saline with Tween-80): 8 of 8; survivor count (dose: 64.0 mg/kg/injection, schedule: Q01DX009 (oral), vehicle: water): 8 of 8; survivor count (dose: 64.0 mg/kg/injection, schedule: Q01DX009 (sc), vehicle: saline with Tween-80): 8 of 8; survivor count (dose: 64.0 mg/kg/injection, schedule: Q01DX009 (sc), vehicle: water): 7 of 8; survivor count (dose: 64.0 mg/kg/injection, schedule: Q03HX008 (ip), vehicle: saline with Tween-80): 7 of 8; survivor count (dose: 64.0 mg/kg/injection, schedule: Q04DX003 (ip), vehicle: saline with Tween-80): 8 of 8; survivor count (dose: 64.0 mg/kg/injection, schedule: Q04DX003 (ip), vehicle: water): 8 of 8; survivor count (dose: 64.0 mg/kg/injection, schedule: Q08DX002 (ip), vehicle: saline with Tween-80): 8 of 8; survivor count (dose: 64.0 mg/kg/injection, schedule: Q08DX002 (ip), vehicle: water): 8 of 8; survivor count (dose: 128.0 mg/kg/injection, schedule: Q01DX001 (ip), vehicle: saline with Tween-80): 8 of 8; survivor count (dose: 128.0 mg/kg/injection, schedule: Q01DX001 (ip), vehicle: water): 2 of 8; survivor count (dose: 128.0 mg/kg/injection, schedule: Q01DX001 (oral), vehicle: water): 8 of 8; survivor count (dose: 128.0 mg/kg/injection, schedule: Q01DX001 (sc), vehicle: saline with Tween-80): 8 of 8; survivor count (dose: 128.0 mg/kg/injection, schedule: Q01DX001 (sc), vehicle: water): 8 of 8; survivor count (dose: 128.0 mg/kg/injection, schedule: Q01DX009 (ip), vehicle: saline with Tween-80): 7 of 8; survivor count (dose: 128.0 mg/kg/injection, schedule: Q01DX009 (oral), vehicle: saline with Tween-80): 8 of 8; survivor count (dose: 128.0 mg/kg/injection, schedule: Q01DX009 (oral), vehicle: water): 8 of 8; survivor count (dose: 128.0 mg/kg/injection, schedule: Q01DX009 (sc), vehicle: saline with Tween-80): 8 of 8; survivor count (dose: 128.0 mg/kg/injection, schedule: Q04DX003 (ip), vehicle: saline with Tween-80): 8 of 8; survivor count (dose: 128.0 mg/kg/injection, schedule: Q04DX003 (ip), vehicle: water): 4 of 8; survivor count (dose: 128.0 mg/kg/injection, schedule: Q08DX002 (ip), vehicle: saline with Tween-80): 8 of 8; survivor count (dose: 128.0 mg/kg/injection, schedule: Q08DX002 (ip), vehicle: water): 3 of 8; survivor count (dose: 256.0 mg/kg/injection, schedule: Q01DX001 (ip), vehicle: saline with Tween-80): 8 of 8; survivor count (dose: 256.0 mg/kg/injection, schedule: Q01DX001 (oral), vehicle: saline with Tween-80): 8 of 8; survivor count (dose: 256.0 mg/kg/injection, schedule: Q01DX001 (sc), vehicle: saline with Tween-80): 8 of 8; survivor count (dose: 256.0 mg/kg/injection, schedule: Q01DX009 (oral), vehicle: saline with Tween-80): 8 of 8; survivor count (dose: 256.0 mg/kg/injection, schedule: Q08DX002 (ip), vehicle: saline with Tween-80): 8 of 8; survivor count (dose: 512.0 mg/kg/injection, schedule: Q01DX001 (ip), vehicle: saline with Tween-80): 3 of 8; survivor count (dose: 512.0 mg/kg/injection, schedule: Q01DX001 (oral), vehicle: saline with Tween-80): 8 of 8; survivor count (dose: 512.0 mg/kg/injection, schedule: Q01DX001 (sc), vehicle: saline with Tween-80): 8 of 8; survivor count (dose: 512.0 mg/kg/injection, schedule: Q01DX009 (oral), vehicle: saline with Tween-80): 8 of 8; survivor count (dose: 1024.0 mg/kg/injection, schedule: Q01DX001 (oral), vehicle: saline with Tween-80): 8 of 8; survivor count (dose: 2048.0 mg/kg/injection, schedule: Q01DX001 (oral), vehicle: saline with Tween-80): 8 of 8
